Results are given in words; binding and its absence hold for the method and conditions named. Some entries that bind do so weakly or less than the wild type. Values belong to the molecule of their own block, whether it stands above or below them.
What was measured:
Experiment in all cases: pull-down
PDGFRA = PDGFRA (UniProt P16234)
BAP1 = BAP1 (UniProt Q92560)
HMGB1 = HMGB1 (UniProt P09429)

The chains behind the UniProt entries cited, without tags or fusion partners. Residues count along the entry.
UniProt P16234, residues 24-528: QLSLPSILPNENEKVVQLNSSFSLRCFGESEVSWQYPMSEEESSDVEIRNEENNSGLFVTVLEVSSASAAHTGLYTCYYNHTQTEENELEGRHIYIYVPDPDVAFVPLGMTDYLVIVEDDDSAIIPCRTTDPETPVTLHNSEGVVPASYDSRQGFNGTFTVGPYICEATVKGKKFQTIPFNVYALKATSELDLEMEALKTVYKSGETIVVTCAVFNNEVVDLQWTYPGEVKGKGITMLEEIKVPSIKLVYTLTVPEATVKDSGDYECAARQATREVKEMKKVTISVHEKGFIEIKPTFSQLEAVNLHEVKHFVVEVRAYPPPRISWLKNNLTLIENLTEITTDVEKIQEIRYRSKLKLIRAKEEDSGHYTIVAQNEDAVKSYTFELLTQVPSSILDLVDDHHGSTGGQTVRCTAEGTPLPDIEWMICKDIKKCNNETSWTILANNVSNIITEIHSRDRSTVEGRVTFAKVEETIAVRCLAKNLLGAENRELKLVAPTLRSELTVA
UniProt Q92560: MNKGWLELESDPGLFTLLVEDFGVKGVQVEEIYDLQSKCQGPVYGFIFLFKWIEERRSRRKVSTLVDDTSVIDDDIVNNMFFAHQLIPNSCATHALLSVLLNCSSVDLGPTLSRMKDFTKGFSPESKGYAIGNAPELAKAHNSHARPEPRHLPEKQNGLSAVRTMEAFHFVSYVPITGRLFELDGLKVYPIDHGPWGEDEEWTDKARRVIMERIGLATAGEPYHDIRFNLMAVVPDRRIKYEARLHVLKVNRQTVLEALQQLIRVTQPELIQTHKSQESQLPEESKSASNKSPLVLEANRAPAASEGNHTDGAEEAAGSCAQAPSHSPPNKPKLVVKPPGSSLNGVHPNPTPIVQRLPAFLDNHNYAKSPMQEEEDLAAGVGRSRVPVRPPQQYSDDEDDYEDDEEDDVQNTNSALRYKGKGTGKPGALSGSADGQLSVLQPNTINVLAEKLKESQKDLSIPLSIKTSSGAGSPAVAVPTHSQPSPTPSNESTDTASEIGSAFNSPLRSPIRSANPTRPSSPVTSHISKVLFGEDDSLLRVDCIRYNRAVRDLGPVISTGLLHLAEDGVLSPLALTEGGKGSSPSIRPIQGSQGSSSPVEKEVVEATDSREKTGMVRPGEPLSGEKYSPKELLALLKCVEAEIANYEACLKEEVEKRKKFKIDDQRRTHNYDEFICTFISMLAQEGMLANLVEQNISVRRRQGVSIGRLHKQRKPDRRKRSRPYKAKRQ
UniProt P09429: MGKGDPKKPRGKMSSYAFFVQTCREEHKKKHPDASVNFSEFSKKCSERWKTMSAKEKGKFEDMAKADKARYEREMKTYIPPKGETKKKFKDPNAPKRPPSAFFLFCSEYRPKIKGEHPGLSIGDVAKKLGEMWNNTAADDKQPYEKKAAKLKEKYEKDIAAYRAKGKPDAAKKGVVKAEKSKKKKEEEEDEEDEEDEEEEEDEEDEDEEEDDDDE
UniProt P26678: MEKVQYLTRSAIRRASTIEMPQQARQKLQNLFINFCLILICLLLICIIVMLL
UniProt P02768, residues 25-609: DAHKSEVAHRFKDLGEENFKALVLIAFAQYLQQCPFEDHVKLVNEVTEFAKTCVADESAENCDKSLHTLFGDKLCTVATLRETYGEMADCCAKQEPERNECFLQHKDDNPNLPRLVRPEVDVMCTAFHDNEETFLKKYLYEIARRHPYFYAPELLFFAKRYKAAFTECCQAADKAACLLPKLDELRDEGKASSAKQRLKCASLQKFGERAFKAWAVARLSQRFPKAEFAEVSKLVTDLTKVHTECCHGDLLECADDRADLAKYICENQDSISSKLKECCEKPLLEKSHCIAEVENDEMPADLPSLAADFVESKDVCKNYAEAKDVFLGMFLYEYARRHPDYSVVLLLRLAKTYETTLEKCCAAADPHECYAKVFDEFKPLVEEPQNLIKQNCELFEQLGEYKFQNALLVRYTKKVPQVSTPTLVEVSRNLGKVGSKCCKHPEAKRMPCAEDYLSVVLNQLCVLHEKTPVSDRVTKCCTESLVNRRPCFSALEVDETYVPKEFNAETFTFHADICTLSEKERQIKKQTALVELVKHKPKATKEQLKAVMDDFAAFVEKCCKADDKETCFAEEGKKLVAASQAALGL

binding (BAP1): no binding
Molecule: phospholambin (from UniProt P26678 1-52)

binding (HMGB1): binds
B1: CUTA (protein, UniProt O60888 33-179)
chain: RLLLLPRVLLTMASGSPPTQPSPASDSGSGYVPGSVSAAFVTCPNEKVAKEIARAVVEKRLAACVNLIPQITSIYEWKGKIEEDSEVLMMIKTQSSLVPALTDFVRSVHPYEVAEVIALPVEQGNFPYLQWVRQVTESVSDSITVLP

More lines, now with the values behind:

Molecule: ALB (from UniProt P02768 25-609)
binding (PDGFRA): binds

B2: PARP3 (protein, UniProt Q9Y6F1 1-533)
chain: MAPKPKPWVQTEGPEKKKGRQAGREEDPFRSTAEALKAIPAEKRIIRVDPTCPLSSNPGTQVYEDYNCTLNQTNIENNNNKFYIIQLLQDSNRFFTCWNRWGRVGEVGQSKINHFTRLEDAKKDFEKKFREKTKNNWAERDHFVSHPGKYTLIEVQAEDEAQEAVVKVDRGPVRTVTKRVQPCSLDPATQKLITNIFSKEMFKNTMALMDLDVKKMPLGKLSKQQIARGFEALEALEEALKGPTDGGQSLEELSSHFYTVIPHNFGHSQPPPINSPELLQAKKDMLLVLADIELAQALQAVSEQEKTVEEVPHPLDRDYQLLKCQLQLLDSGAPEYKVIQTYLEQTGSNHRCPTLQHIWKVNQEGEEDRFQAHSKLGNRKLLWHGTNMAVVAAILTSGLRIMPHSGGRVGKGIYFASENSKSAGYVIGMKCGAHHVGYMFLGEVALGREHHINTDNPSLKSPPPGFDSVIARGHTEPDPTQDTELELDGQQVVVPQGQPVPCPEFSSSTFSQSEYLIYQESQCRLRYLLEVHL
binding (BAP1): binds

Reference: article doi:10.1101/459065
